Measured values taken from patent US20220259268A1 (NATIONAL UNIVERSITY CORPORATION TOKAI NATIONAL HIGHER …, published 2022).

Biological target: the molecule itself
Experiment: dynamic light scattering in PBS

B1: Nhead recombinant protein (AtaA59-325-GCN4pII-His) (other)
chain: MATVQVGGGTNSGTTATASTNCADLYNYQNPENSGSGAAGNYNAGNPSVCSIAIGENAQGGTSGTGGSPGIAIGGNSKATGGLSVAIGGYAQATNVGSIALGTAALSSGFNSLAISRQAAATNNYSIAIGTTSVSKGVGSIAMGHSTNASGDQSIAIGSSDAVNSATATTTYDGTTNTQASGSKSIAIGASAKASTNNSIALGAGSVTSAQSGNSYLTGVGASATNGVVSVGTSTATRRIQNVADGSAASDAVTVAQLDKAYDDTNGRMKQIEDKIEEILSKIYHIENEIARIKKLIKLHHHHHH
notes: Made in E. coli BL21 star (DE3) and purified; The construct was designed to form a homotrimer through the GCN4pII tag; The oligomeric state of the purified protein is not measured in the text; also called E. coli recombinant Nhead; recombinant Nhead
Q: Does B1 bind?
A: Result: no binding (tested: 0.2 mg/ml)
